Reference: paper PMC11883000, “Structure-function relationship of ASH1L and histone H3K36 and H3K4 methylation” (Nature Communications, 2025)
No constants are given. Whether binding was seen depends on the method and setting. For some assays here: Binding can be weak; no strength is given.

Experiments:
[1] = biological target: ASH1L bromodomain (aa 2430-2564) (human) (UniProt Q9NR48); experiment: NMR titration; 1H,15N HSQC chemical shift perturbation; unlabelled ligand (histone peptide or ASH1LSET) added to 0.1-0.2 mM 15N-labelled protein; 298 K; 25 mM Tris pH 7.5, 150 mM NaCl, 5 mM DTT; both purified
[2] = biological target: ASH1L plant homeodomain (PHD) finger, wild type (aa 2579-2629) (human) (UniProt Q9NR48); experiment: as above

Substance: ASH1L SET domain, isolated (from UniProt Q9NR48) (domain or fragment)
- binding [1]: binds
- binding [2]: no binding
